No constants are given. Whether binding was seen depends on the method and setting. Binding seen in cells or lysates may run through a third protein. Some binding calls cover weakened binding; strength is not graded here. Blank lines part the entries; values can stand above or below the substance they belong to.
How the values were obtained:
Experiment in all cases: co-IP
[1] = target: PIAS1 (UniProt O75925)
[2] = target: E3 ligase CHIP (human (endogenous in SH-SY5Y)) (UniProt Q9UNE7)
[3] = target: E3 ligase CHIP, rat brain (rat (endogenous in SD rat brain, SN and STR)) (UniProt A6HD62)

Chains of the proteins cited; added tags and fusions are not shown.
UniProt O75925: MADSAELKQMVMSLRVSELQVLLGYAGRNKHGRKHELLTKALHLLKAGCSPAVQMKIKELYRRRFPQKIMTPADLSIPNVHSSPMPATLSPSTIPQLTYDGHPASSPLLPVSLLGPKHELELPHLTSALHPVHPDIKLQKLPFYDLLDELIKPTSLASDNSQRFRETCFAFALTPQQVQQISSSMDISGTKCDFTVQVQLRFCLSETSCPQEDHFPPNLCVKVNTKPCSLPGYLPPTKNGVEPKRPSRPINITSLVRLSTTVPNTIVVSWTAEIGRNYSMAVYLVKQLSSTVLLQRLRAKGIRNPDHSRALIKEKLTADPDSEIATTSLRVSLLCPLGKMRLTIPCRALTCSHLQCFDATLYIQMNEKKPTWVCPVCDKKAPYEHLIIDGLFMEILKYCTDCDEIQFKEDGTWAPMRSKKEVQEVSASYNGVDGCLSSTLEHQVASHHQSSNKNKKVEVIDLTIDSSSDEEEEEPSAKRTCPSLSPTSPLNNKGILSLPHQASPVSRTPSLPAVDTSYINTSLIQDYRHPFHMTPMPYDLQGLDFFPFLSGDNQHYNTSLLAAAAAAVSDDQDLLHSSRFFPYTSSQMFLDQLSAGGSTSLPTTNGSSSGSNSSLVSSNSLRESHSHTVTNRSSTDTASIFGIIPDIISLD
UniProt Q9UNE7: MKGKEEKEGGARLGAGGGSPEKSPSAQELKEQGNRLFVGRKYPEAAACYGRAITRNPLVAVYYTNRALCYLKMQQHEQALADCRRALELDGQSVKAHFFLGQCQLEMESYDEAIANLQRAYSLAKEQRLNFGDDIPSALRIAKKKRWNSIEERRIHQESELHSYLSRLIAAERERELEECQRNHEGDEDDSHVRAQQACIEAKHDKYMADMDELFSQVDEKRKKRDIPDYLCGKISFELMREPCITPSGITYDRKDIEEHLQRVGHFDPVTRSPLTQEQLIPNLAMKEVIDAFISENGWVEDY
UniProt A6HD62: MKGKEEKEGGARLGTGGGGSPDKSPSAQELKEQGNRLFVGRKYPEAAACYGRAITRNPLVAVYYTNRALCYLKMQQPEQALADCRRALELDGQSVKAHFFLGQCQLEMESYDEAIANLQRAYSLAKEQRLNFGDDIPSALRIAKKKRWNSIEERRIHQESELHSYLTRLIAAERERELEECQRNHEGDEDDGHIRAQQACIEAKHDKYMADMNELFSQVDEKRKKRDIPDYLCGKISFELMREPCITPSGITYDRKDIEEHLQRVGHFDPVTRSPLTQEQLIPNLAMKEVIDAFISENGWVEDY
UniProt P21796: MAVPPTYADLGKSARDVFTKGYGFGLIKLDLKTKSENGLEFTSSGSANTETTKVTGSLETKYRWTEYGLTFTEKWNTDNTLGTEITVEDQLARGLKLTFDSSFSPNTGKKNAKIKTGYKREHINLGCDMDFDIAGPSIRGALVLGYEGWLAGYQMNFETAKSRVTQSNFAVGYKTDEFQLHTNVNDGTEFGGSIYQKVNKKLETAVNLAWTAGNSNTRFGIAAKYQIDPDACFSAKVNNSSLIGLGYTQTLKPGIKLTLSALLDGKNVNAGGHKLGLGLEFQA
UniProt Q9Z2L0: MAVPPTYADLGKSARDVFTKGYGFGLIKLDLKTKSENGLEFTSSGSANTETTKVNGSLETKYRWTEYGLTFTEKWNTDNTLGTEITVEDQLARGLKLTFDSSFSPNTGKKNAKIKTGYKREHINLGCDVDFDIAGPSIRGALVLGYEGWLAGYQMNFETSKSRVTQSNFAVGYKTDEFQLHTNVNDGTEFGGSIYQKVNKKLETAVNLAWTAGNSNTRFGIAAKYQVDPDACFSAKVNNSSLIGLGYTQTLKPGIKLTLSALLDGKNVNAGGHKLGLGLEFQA

binding [1]: binds weakly
Substance: VDAC1 (lysate of the experiment not stated; data not shown) (from UniProt P21796 1-283)

binding [2]: binds
Substance: Voltage-dependent anion channel 1 (VDAC1) (from UniProt P21796 1-283)

binding [3]: binds
Substance: Voltage-dependent anion channel 1 (VDAC1), rat brain (from UniProt Q9Z2L0 1-283)

From publication doi:10.1101/2022.09.22.508987
